Values of other authors, collected in patent publication US20200236925A1, “METHODS AND FORMULATIONS FOR PREVENTING DOWNWARD MIGRATION OF AGRICULTURAL MATERIALS” (BAYER CROPSCIENCE LP, priority 2019, published 2020).
Read-outs that look alike come from different tables or passages of the source.

For `Cc1ccc2c(c1)[C@H](Nc1nc(N)nc(C(C)F)n1)[C@@H](C)C2` (mixture of isomers) [indaziflam, N2-[(1R,2S)-2,3-dihydro-2,6-dimethyl-1H-inden-1-yl]-6-[(1RS)-1-fluoroethyl]-1,3,5-triazine-2,4-diamine], the leaching depth (under 5 cm of simulated rainfall shortly after application) is given as 13 cm and the leaching depth (under 15 cm of simulated rainfall shortly after application) is given as 30 cm.
